Data from the supplement of paper PMC10849652.
The list shows a part of the results.

Sequences of proteins named here, by UniProt entry; tags and fusion partners are left off. A change or cut given only in a name is not applied to a line headed by its entry.
UniProt Q96P47: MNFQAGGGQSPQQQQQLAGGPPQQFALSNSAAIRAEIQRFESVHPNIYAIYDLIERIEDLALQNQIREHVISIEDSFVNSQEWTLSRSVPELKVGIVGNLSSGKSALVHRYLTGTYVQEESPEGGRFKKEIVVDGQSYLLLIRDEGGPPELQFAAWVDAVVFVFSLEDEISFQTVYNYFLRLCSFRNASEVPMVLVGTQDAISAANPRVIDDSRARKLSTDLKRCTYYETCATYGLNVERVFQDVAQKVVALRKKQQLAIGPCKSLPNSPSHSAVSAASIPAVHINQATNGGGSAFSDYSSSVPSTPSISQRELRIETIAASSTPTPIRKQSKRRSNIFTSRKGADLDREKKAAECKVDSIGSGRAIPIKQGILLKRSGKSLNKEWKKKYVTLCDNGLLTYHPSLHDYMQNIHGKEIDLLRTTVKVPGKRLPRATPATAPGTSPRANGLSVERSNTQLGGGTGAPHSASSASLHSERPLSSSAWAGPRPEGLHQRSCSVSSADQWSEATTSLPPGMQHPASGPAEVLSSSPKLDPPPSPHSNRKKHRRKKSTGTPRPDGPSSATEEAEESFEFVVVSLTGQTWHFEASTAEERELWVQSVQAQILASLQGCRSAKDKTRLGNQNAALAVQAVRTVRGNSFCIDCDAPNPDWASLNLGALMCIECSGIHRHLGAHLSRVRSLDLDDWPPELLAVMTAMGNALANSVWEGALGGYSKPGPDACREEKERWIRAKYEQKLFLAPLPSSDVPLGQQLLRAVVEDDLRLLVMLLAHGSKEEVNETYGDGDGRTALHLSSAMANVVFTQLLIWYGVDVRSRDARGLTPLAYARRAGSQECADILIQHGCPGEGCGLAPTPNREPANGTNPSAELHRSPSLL
UniProt Q9BV57: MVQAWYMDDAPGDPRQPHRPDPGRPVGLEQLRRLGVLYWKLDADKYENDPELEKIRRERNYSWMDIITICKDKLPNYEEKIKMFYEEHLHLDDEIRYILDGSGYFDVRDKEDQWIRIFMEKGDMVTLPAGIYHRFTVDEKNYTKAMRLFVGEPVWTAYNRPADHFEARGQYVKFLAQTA
UniProt Q9Y305: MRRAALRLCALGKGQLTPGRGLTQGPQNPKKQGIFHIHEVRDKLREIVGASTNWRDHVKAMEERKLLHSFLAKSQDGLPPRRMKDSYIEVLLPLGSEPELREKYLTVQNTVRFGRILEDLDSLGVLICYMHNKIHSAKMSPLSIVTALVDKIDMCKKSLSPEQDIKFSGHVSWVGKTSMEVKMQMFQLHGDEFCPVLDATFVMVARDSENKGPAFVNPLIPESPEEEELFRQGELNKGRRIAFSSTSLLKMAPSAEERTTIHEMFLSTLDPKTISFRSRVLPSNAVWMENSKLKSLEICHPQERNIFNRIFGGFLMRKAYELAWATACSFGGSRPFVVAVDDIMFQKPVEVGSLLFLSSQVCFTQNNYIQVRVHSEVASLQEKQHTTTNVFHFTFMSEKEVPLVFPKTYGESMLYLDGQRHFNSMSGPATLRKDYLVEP
UniProt P35611: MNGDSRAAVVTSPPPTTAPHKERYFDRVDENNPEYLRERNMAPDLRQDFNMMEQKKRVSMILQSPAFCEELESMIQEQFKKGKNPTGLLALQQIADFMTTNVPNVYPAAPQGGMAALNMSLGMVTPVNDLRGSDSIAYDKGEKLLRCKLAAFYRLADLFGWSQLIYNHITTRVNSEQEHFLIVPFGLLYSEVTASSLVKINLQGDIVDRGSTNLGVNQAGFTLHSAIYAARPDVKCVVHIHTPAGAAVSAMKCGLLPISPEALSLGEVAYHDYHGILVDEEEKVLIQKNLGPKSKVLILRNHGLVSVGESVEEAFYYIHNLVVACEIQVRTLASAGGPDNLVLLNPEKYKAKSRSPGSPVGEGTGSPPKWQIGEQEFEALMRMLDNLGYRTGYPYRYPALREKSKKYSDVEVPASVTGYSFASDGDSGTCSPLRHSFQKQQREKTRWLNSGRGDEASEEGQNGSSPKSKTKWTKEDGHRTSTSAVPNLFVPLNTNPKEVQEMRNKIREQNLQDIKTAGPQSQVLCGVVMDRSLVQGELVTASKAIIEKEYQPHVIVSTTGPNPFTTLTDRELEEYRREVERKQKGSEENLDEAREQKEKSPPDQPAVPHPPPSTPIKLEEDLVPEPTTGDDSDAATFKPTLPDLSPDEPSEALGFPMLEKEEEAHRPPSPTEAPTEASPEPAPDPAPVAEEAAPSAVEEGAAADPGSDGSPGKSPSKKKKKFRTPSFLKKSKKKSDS
UniProt P52895: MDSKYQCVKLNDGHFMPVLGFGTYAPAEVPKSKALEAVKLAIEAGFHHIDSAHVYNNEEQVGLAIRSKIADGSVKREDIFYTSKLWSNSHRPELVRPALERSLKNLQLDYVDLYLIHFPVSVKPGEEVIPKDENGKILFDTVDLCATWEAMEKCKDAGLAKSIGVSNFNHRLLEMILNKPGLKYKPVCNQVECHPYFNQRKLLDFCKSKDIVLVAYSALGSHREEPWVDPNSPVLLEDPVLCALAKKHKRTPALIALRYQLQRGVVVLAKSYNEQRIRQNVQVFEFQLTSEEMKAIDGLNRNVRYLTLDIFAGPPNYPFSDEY
UniProt Q9UHB7: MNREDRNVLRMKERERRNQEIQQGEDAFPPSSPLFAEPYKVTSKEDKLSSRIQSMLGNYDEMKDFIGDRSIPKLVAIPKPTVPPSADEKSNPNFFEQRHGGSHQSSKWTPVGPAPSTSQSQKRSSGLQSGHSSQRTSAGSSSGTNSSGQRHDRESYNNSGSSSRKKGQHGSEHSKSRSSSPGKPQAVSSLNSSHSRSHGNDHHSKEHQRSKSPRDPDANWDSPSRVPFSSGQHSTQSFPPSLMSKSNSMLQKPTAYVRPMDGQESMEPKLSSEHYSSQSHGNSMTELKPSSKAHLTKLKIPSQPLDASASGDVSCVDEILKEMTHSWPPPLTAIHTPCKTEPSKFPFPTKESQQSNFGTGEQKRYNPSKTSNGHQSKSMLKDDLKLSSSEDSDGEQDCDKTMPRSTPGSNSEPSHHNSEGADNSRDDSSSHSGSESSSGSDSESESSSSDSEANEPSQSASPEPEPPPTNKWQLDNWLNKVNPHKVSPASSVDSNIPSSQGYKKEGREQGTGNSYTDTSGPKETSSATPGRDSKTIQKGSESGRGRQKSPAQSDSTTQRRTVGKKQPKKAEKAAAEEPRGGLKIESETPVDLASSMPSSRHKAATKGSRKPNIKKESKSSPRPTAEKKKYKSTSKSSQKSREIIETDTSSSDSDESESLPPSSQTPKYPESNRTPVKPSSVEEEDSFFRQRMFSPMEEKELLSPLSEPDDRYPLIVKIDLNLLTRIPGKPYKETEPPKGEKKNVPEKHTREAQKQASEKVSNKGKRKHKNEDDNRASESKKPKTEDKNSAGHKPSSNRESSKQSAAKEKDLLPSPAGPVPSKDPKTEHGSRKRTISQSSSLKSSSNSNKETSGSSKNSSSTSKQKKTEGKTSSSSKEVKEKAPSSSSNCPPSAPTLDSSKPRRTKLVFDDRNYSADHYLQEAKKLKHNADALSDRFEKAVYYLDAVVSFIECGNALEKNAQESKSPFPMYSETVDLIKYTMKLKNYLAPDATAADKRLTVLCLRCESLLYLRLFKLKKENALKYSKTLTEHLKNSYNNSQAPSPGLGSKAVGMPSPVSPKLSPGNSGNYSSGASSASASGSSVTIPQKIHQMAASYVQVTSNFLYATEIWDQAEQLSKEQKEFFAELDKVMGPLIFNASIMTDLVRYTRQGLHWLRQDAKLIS
UniProt P24666: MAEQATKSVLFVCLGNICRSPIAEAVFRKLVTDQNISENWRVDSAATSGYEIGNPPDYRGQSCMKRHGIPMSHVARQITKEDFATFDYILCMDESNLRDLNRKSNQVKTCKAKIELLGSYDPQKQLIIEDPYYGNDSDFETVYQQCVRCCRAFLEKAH
UniProt Q96BJ3: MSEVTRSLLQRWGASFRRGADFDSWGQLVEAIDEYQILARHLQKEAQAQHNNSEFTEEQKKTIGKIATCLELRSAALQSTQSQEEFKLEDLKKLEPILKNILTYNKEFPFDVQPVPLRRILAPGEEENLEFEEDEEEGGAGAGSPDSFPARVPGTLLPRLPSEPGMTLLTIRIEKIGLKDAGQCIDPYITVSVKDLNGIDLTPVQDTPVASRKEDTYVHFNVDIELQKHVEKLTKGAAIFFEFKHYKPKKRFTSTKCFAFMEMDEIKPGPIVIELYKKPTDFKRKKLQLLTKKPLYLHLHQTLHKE
UniProt Q13155: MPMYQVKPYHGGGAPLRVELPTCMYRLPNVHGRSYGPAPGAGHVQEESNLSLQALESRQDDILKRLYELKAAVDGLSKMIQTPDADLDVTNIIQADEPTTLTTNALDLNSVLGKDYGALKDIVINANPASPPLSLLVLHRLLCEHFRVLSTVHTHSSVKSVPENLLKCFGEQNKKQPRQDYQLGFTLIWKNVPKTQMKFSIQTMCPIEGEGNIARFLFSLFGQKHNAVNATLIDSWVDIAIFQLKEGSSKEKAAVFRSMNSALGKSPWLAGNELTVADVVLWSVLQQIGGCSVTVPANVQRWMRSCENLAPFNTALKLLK
UniProt Q6RW13: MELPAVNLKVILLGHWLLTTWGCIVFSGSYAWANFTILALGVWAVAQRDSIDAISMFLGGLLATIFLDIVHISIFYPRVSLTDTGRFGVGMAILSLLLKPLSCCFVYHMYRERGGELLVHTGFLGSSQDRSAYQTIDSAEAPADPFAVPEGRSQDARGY
UniProt P54922: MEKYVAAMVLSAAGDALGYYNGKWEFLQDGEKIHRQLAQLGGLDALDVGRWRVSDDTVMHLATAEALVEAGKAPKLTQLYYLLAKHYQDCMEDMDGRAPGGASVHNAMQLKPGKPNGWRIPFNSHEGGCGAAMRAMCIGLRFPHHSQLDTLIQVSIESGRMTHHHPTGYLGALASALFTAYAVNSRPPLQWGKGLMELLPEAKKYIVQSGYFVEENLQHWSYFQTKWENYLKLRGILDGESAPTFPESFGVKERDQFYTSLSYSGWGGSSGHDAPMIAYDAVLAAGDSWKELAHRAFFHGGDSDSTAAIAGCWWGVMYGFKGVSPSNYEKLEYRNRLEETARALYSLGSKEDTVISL
UniProt P11766: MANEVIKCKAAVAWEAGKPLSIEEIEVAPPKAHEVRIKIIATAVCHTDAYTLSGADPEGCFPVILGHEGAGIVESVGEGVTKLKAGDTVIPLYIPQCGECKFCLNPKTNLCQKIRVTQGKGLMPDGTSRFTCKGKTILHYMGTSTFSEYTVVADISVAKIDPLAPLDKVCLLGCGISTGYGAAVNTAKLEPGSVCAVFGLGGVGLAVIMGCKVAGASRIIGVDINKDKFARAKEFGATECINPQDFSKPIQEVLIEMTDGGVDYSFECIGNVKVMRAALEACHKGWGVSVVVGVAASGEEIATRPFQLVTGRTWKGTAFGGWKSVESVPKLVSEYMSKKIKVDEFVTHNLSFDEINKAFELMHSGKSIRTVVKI
UniProt O43488: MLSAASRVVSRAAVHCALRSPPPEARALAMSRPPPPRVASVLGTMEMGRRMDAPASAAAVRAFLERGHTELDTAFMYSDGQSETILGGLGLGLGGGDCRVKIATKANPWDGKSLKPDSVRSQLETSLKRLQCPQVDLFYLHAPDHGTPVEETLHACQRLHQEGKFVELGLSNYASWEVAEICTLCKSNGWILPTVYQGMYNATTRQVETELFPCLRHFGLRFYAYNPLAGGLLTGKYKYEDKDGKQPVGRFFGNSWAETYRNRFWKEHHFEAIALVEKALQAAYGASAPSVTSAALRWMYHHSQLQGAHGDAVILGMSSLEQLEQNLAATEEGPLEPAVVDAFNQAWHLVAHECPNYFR
UniProt Q16186: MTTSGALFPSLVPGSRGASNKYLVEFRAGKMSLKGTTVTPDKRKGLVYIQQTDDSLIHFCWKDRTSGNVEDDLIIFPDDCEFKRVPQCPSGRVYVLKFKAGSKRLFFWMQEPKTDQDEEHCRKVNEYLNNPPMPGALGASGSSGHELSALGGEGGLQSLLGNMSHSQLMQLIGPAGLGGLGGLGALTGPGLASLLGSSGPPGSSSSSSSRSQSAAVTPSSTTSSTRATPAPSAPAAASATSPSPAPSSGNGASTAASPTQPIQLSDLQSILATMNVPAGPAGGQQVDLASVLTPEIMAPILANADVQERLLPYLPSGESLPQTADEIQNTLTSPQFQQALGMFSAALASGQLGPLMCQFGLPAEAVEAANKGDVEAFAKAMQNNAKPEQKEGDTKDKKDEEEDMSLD
UniProt O95433, whole entry, looked up: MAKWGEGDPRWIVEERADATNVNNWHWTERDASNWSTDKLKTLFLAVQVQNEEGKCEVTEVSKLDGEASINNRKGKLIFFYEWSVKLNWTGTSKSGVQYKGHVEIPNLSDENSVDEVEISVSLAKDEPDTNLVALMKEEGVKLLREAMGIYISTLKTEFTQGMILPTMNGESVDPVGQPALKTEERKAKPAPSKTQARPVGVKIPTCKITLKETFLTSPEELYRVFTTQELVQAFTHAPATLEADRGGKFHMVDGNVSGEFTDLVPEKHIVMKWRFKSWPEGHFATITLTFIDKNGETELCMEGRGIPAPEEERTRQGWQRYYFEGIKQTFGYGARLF

compound: C[C@H](C1=CC=C(C=C1)C(=O)NC2=C3C=CNC3=NC=C2)N; assay: log2 fold change, soluble protein after heating vs DMSO (PISA); higher = thermal stabilisation; K562 lysate, 10 uM; active = over 0.2 and 3.5 SD of the protein, either way, in both replicates (recomputed)
How it was run: (§1)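 Thermal stability, expressed as log-two fold change relative to solvent controls, is given from duplicates. Crude K562 extract in PBS pH 7.4 with 1 mM MgCl2, at 1 mg/mL protein, was treated with 10 μM compound for 30 min and heated in aliquots for 3 min across 48°C-58°C. After pooling, adjustment to 0.5% NP-40 at 4°C and centrifugation at 21,000xg for 90 min, supernatant protein was measured by TMTpro 16plex LC-MS/MS with channel sums equalised.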

log2 fold change, inactive:
AFDN (UniProt J3KN01) 0.021
AGAP3 isoform 4 (UniProt Q96P47) 0.053
ADI1 (UniProt Q9BV57) -0.07
ACOT9 isoform 4 (UniProt Q9Y305) 0.105
ACTR6 (UniProt Q9GZN1) -0.127
ADD1 isoform 3 (UniProt P35611) -0.011
AGPS (UniProt O00116) -0.033
AKR1C2 (UniProt P52895) -0.201
ADGRE2 (UniProt Q9UHX3) 0.025
AFF4 (UniProt Q9UHB7) 0.011

compound: C[C@H](Nc1ncnc2nc[nH]c12)c1cc2cccc(Cl)c2c(=O)n1-c1ccccc1 [duvelisib]; assay: as above
How it was run: as §1

log2 fold change, inactive:
ACP1 (UniProt P24666) 0.075
ACTN4 (UniProt K7EJH8) 0.084
ACSL3 (UniProt O95573) -0.01
AIDA (UniProt Q96BJ3) 0.084
AIMP2 (UniProt Q13155) -0.018
AGTRAP (UniProt Q6RW13) -0.028
ADPRH (UniProt P54922) -0.026
ADH5 (UniProt P11766) 0.127
ACTA1 (UniProt P68133) -0.024
AKR7A2 (UniProt O43488) -0.011
AGO3 (UniProt Q9H9G7) -0.018
ADRM1 (UniProt Q16186) 0.03
AHSA1 (UniProt O95433) 0.014

For convenience, some entries already given.
log2 fold change, inactive:
ADPRH (UniProt P54922) -0.026
ADH5 (UniProt P11766) 0.127
